## Primary screen of a compound library

The chains behind the UniProt entries cited, without tags or fusion partners.
UniProt E9BF75, entry or part of it: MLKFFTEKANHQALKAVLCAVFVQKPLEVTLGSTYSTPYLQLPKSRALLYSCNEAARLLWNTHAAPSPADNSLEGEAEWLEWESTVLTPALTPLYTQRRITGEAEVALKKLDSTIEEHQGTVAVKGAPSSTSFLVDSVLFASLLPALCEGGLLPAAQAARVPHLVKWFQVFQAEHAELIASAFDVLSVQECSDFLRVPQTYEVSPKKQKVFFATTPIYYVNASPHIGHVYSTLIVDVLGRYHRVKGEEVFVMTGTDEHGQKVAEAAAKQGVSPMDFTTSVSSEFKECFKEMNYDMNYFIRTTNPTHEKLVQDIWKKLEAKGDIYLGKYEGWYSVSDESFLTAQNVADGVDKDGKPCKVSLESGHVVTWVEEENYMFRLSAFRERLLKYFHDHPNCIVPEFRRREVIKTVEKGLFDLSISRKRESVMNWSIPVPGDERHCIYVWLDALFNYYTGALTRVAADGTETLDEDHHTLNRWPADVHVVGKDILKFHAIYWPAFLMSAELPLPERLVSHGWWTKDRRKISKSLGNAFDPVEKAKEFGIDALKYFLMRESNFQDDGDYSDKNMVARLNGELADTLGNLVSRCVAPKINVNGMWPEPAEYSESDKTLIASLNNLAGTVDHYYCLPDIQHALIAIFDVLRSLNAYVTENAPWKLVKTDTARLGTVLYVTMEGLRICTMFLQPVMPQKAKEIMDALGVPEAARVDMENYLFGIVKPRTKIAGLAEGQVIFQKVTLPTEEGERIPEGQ

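Primary screen of methionyl-tRNA synthetase; the read-out is not stated. Target: Methionyl-tRNA synthetase (putative), Leishmania donovani (UniProt E9BF75). The test concentration is not given. The values are filed as inhibition. Of about 68,000 compounds tested this way, about 24 (0.035%) reached 50% or more in at least one test.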

Results are percentages, as filed. The record does not define 0% and 100%; most values in the screen are far below 50% and negative numbers occur (in some assays of this library far below -100). Compounds were drawn at random from those tested, without regard to their results.

compound | Inhibition
Cc1cnc(N2CCC3(CC2)CC(NC(=O)N(C)C)CO3)nc1 (centres undefined) | 17.52%
O=C1CCCCCN1Cc1cccc(OC(F)F)c1 | 13.55%
Cc1cc2nccc(C3CCCN(C(=O)c4cnccn4)C3)n2n1 (centres undefined) | 18.62%
CC(C)(C(=O)NCC1CCN(Cc2ncc[nH]2)C1)c1ccccc1 (centres undefined) | 6.625%
Cc1noc(C)c1CN1CCN(C(C)c2nc(C3CC3)no2)CC1 (centres undefined) | 15.3%
Cc1nc2sccn2c1CN(CCCN(C)C)Cc1ccccn1 | 16.28%
CN(Cc1ccccc1)CC1CC2(CO1)CN(Cc1cnn(C)c1)C2 (centres undefined) | 14.18%
O=C(NCC1CCCO1)c1cc(-c2ccc3c(c2)CCO3)n[nH]1 (centres undefined) | 7.576%
COCC(=O)N1CCCC1(C)c1nc(C)cc(O)n1 (centres undefined) | 11.61%
CN(C)S(=O)(=O)c1ccc2c(c1)N(Cc1nccn1C)CCC2 | 25%
O=C(c1ccc2[nH]ccc2c1)N1Cc2nc(CN3CCCC3)oc2C1 | 10.8%
COc1ccc(NC(=O)N2CCC(c3noc(C)n3)CC2)cc1C | 10.13%
Cn1cnnc1C1CCCN(C(=O)c2cc(C3CC3)on2)C1 (centres undefined) | 7.508%
O=C(NCc1ccccn1)c1cncc(C2CCCN2)n1 (centres undefined) | 3.797%
CCCC(=O)N1CCc2c(CNS(C)(=O)=O)cncc2C1 | 10.68%
Cc1nc2c(c(C)c1CC(=O)NCc1cccc(C#N)c1)c(=O)[nH]n2C | 13.89%
Cc1nc(CNC(C)c2ccc(OCC(=O)NC3CC3)cc2)cs1 (centres undefined) | 6.944%
O=C(CN1CCOC(c2ccccc2C(F)(F)F)C1)NC1CC1 (centres undefined) | 6.983%
c1ccc(Cc2nnc(CN3CCc4cncnc4C3)o2)cc1 | 11.75%
OC(CNCc1nnc2ccccn12)c1ccc2c(c1)OCCCO2 (centres undefined) | 15.72%
Cc1cn2c(n1)CCC(NC(=O)c1[nH]nc(C)c1Br)C2 (centres undefined) | 10.12%
O=c1[nH][nH]cc1-c1ccnc(NCCc2cccnc2)n1 | 15.78%
CCn1c(-c2ccccc2)nn(CC(=O)NCCc2ccc(C)s2)c1=O | 6.137%
CN(Cc1nncn1C)C(=O)c1cc(COc2ccccc2F)[nH]n1 | 8.761%
O=C([C@H]1CN(Cc2nccs2)C[C@H]2OCC[C@@H]12)N1CCCC1 | 0%
CN1CCOC(CN(C(=O)CN2CCCC2=O)c2nccs2)C1 (centres undefined) | 1.111%
COCCn1c(CN2CCCO2)cnc1S(=O)(=O)CC1CCCCC1 | 16.08%
Cc1cc(N(Cc2cccnc2)C2CC2)n2nc(C(F)(F)F)nc2n1 | 0.7634%
CC(C)(C)NC(=O)COc1ccc(CNCc2ccccn2)cc1 | 1.105%
CCN1C(=O)C2(CCOCC2)c2cc(NC(=O)c3cnccn3)ccc21 | 6.452%
CC(C)Oc1cccc(F)c1C(C(=O)O)N1CCCC1 (centres undefined) | 11.92%
CNC(=O)[C@@H]1C[C@@H](N)CN1C1CCN(c2ccccc2F)CC1 | 6.41%
Cc1ccc(N2C[C@H]3CCC[C@@]3(COc3cccnc3)C2)nn1 | 15.33%
CN(C)c1ccc(C(=O)NCc2csc(Br)c2)cn1 | 14.75%
c1cncc(OCc2noc3c2CN(Cc2cccs2)CC3)c1 | 14.7%
CN(C)CCN1CC2(CCC1=O)CCN(C(=O)c1ccn(C)n1)CC2 | 15.24%
Cc1cc(O)ccc1-c1cc(-c2cnn(C)c2C2CC2)c(C#N)c(N)n1 | 7.463%
Cc1ccoc1C(=O)N1CCn2cc(CN3CCCC3)nc2C1 | 10.45%
CN(Cc1cc2c(cc1OC(F)F)OCO2)Cc1nccn1C | 11.52%
CC(Cn1cncn1)NCc1ccc2nonc2c1 (centres undefined) | 14.4%
O=C(NCC1CCCO1)c1c(-n2cnnn2)sc2c1CCC2 (centres undefined) | 11.97%
O=C(Cn1ccc2ccccc21)NCc1ccc(C(=O)O)cc1 | -4.225%
Cn1ccnc1C(=O)N1CCC2(CCCN2CC2CC2)CC1 | 12.89%
O=C(NCCN1CCOCC1)N1CCN(c2ccccc2)CC1 | 8.791%
CCc1cc(C(=O)NCC2CCN(Cc3cccc(C#N)c3)C2)on1 (centres undefined) | 13.66%
Cc1ccc(-c2nc(CNC3CCc4ncnn4C3)co2)cc1 (centres undefined) | 17.38%
CC(C)NC(=O)N1CCC[C@H]1C(=O)NCCCc1cccc(F)c1 | 14.73%
Cc1cnn(CC2CCCN2C(=O)c2ccccc2-n2cnnn2)c1 (centres undefined) | 13.89%
O=C1COc2cccc(OCc3ccccn3)c2N1 | 19.84%
Cn1cccc1C(=O)N1CCC(O)(CN2CCc3ccccc3C2)C1 (centres undefined) | 10.59%
O=C(NCC1CCCN(C(=O)NCCc2ccccc2)C1)c1ccco1 (centres undefined) | 17.74%
CN(C)C(=O)C1CN(c2ccncn2)CCN(C2CCOCC2)C1 (centres undefined) | 7.302%
Cc1nc(CN2CCCC2Cn2cncn2)nc2ccccc12 (centres undefined) | 26.46%
CCOC1CCN(C(=O)NCCN(C)C(=O)OC(C)(C)C)CC1 | 3.623%
Cc1cccc(CN2CCC3(CCC(C(=O)N(C)C)O3)CC2)n1 (centres undefined) | 12.89%
C[S+]([O-])c1ccc(NC(=O)Cc2cccnc2)cc1F (centres undefined) | 4.835%
COCCN1CCC(CNC(=O)C2(c3cccc(C)c3)CC2)C1 (centres undefined) | 14.8%
Cc1cnn(CCC(=O)N2CCC(Nc3cccnn3)CC2)c1 | 0.6536%
O=C(NCc1cc(=O)n2c(n1)CN(CC1CC1)CCC2)c1ccsc1 | 6.452%
CC1CCC(N2CCC(NS(=O)(=O)CCOC(C)C)CC2)CC1 (centres undefined) | 14.78%
COc1cc(C(=O)NC2COc3ccccc3C2)ccc1OCC(N)=O (centres undefined) | 7.796%
Cc1cnn(CC2CCCN2Cc2noc(-c3ccccc3)n2)c1 (centres undefined) | 9.456%
CN(Cc1cn2c(n1)CN(C(=O)N(C)C)CC2)Cc1ccco1 | 6.383%
CCc1nc(C2CCCN2C(=O)CCc2ccc3c(c2)OCO3)no1 (centres undefined) | 2.222%
COc1ccc(Cl)cc1S(=O)(=O)N(C)CC(N)=O | 7.886%
c1cnc(N2CCO[C@H]3CN(Cc4csnn4)C[C@H]32)cn1 | 2.92%
C1CCC(NCC2(N3CCOCC3)CCSC2)C1 (centres undefined) | 1.441%
O=C(C1CC=CC1)N1CCc2c(COCc3ccncc3)cncc2C1 | 23.5%
C=Cn1ncc(CN2C[C@@H]3CCCN3C[C@H]2Cc2ccccc2)c1C | 6.78%
CN(C)CCN1CC[C@@H]2O[C@@H](COCC(=O)N3CCCC3)CC[C@@H]21 | 8.75%
COc1ccc([C@@H]2CN(Cc3cccnc3N)C[C@H]2NC(C)=O)cc1 | 10.18%
NC(=O)c1c(-c2ccc(Cl)cc2Cl)csc1NC(=O)CCCC(=O)O | 11.33%
CC(=O)NCCc1ccc(S(=O)(=O)N(CC(C)C)C(C)C)s1 | -2.655%
COCCNc1nc(C)nc2c1CCN(C[C@H]1CC[C@@H](N)CC1)CC2 | 8.669%
O=C(NC1CCCCC1)c1cc(Br)cnc1N1CCCCC1 | 6.389%
CN(C)C(=O)CN1CCCCC1c1nc(N)ncc1-c1ccc(Cl)cc1 (centres undefined) | 11%
Cn1cnn(Cc2ccccc2F)c1=O | 3.665%
COCc1ncc(CN2CCC3(CCNC(=O)CC3)CC2)cn1 | 7.627%
CCN1CCn2c(C)cnc2C12CCN(C(=O)c1cscn1)CC2 | 7.372%
Cc1oc(C)c(C(=O)NCc2cccnc2N(C)C)c1C | 17.35%
Cc1cc(-c2nn3c(C(C)C)nnc3s2)on1 | 10.03%
CSCCCN1CCn2nc(CNC(=O)N(C)C)cc2C1 | 12.71%
CC(=O)N(Cc1ncc(C)o1)C1CCN(CCc2cnn(C)c2)C1 (centres undefined) | 11.27%
Cc1nnc2n1CCN(CCOc1ccccc1)C2 | -1.389%
Cc1cc(C)n(-c2cccc(NC(=O)N3CCC[C@@H]3CO)c2)n1 | 13.07%

Some entries from above, unchanged:

compound,Inhibition
O=C(NCc1ccccn1)c1cncc(C2CCCN2)n1 (centres undefined),3.797%
CC(C)NC(=O)N1CCC[C@H]1C(=O)NCCCc1cccc(F)c1,14.73%
COc1cc(C(=O)NC2COc3ccccc3C2)ccc1OCC(N)=O (centres undefined),7.796%
CN(C)c1ccc(C(=O)NCc2csc(Br)c2)cn1,14.75%
c1ccc(Cc2nnc(CN3CCc4cncnc4C3)o2)cc1,11.75%
O=c1[nH][nH]cc1-c1ccnc(NCCc2cccnc2)n1,15.78%
O=C(NC1CCCCC1)c1cc(Br)cnc1N1CCCCC1,6.389%
Cc1cc(C)n(-c2cccc(NC(=O)N3CCC[C@@H]3CO)c2)n1,13.07%
Cc1nc(CN2CCCC2Cn2cncn2)nc2ccccc12 (centres undefined),26.46%
Cc1cn2c(n1)CCC(NC(=O)c1[nH]nc(C)c1Br)C2 (centres undefined),10.12%

The values are deposited in ChEMBL (CHEMBL3988442, “University of Dundee, Small-Polar-MMV Screening Library” (2021)).